# Laboratory results reported in publication PMC5859096.
# Construct, isoform or probe ends are uncertain for at least one entry. For part of these data: No signal at the amounts used counts as a negative.
# Columns and labels:
# [1] = molecular target: T1, Tag-free BldC (Streptomyces coelicolor) (UniProt A0A0M7QSG5); assay: crystal structure (3.09 A); conditions: 0.1 M CaCl2 in crystallization; recombinant protein
# [2] = molecular target: T2, His6-BldC (Streptomyces coelicolor) (UniProt A0A0M7QSG5); assay: EMSA; conditions: EMSA: 0.004-1.2 uM BldC, 20 min RT, 5% gel; recombinant protein; protein details: His6 (pET15b)
# [3] = molecular target: His6-BldC(R30A) (Streptomyces coelicolor) (UniProt A0A0M7QSG5); assay: fluorescence polarization; conditions: FP: 25 mM Tris pH 7.5, 150 mM NaCl, 1 nM F-DNA, 25 C; recombinant protein; protein details: His6; label: 5' fluorescein on top strand; letters put together from the description
# [4] = molecular target: His6-BldC(H46A) (Streptomyces coelicolor) (UniProt A0A0M7QSG5); assay: fluorescence polarization; conditions: FP: 25 mM Tris pH 7.5, 150 mM NaCl, 1 nM F-DNA, 25 C; recombinant protein; protein details: His6; label: 5' fluorescein on top strand; letters put together from the description
# [5] = molecular target: His6-BldC(G44E) (Streptomyces coelicolor) (UniProt A0A0M7QSG5); assay: fluorescence polarization; conditions: FP: 25 mM Tris pH 7.5, 150 mM NaCl, 1 nM F-DNA, 25 C; recombinant protein; protein details: His6; label: 5' fluorescein on top strand; letters put together from the description
# [6] = molecular target: T1, Tag-free BldC (Streptomyces coelicolor); assay: crystallization; conditions: same crystals as SeMet mutant; recombinant protein; letters put together from the description
# [7] = molecular target: SeMet BldC(L43M-L58M), tag-free (Streptomyces coelicolor) (UniProt A0A0M7QSG5); assay: crystal structure (3.28 A); conditions: recombinant protein; letters put together from the description
# [8] = molecular target: T2, His6-BldC (Streptomyces coelicolor); assay: fluorescence polarization; conditions: FP: 25 mM Tris pH 7.5, 150 mM NaCl, 1 nM F-DNA, 25 C; recombinant protein; protein details: His6 (pET15b); label: 5' fluorescein on top strand; letters put together from the description
sequence,measurement,setting,value
GCAATTCGGTCGAATTTC (double strand) [smeA-ssfA 18mer],binding result,[1],binds
TGTCCGAATTGTCCGAATTG (double strand) [whiI 20R sym],binding result,[2],binds
TGTGTCCGAATTGCTCGGATTG (double strand) [whiI 22L],binding result,[2],binds
TTCAATTCGGACAATTCGGACA / AATGTCCGAATTGTCCGAATTG [whiI opt 22mer (FP)],binding result,[3],no binding
same,binding result,[4],no binding
same,binding result,[5],no binding
TTCAATTCGGACAATTCGGACA / AATGTCCGAATTGTCCGAATTG [whiI opt 22mer (crystal)],binding result,[6],binds
same,binding result,[7],binds
TTCGGCCCGGACGGCCCGGACA / AATGTCCGGGCCGTCCGGGCCG [whiI opt AATT to GGCC],binding result,[8],no binding
